Results taken from patent US9416099B2 (priority 2010, dated 2016).
At least one compound was matched to its structure with a doubt left.

Format: physicochemical

For C[N+](C)(CCCNC(=O)CCCCCCCCC(CCCCCCCC(=O)NCCC[N+](C)(C)CC(=O)[O-])S(=O)(=O)[O-])CC(=O)[O-].[Na+] (stereo not shown) [C18-33, C18 DiBetaine Sulfonate], the “Spont. (spontaneity or bloom)” value was “F−”.
